Consider 68 compounds from PubChem BioAssay AID1458 (National Center for Advancing Translational Sciences (NCATS), 2008).

Where “and” joins values, the source holds several entries; their conditions need not be identical. Equal values may be shown once. In all, about 210,000 compounds went through this assay and about 5,900 (2.8%) were called active. Inconclusive results (about 5%) are left out. The call rests on the fitted dose curve; in most records, active means well fitted activation curve with a large enough effect; inconclusive means small, poorly fitted or top-dose-only effect; inactive means no such curve, though single readings can be large or run the other way. The entries are a selection whose mix differs from that of the whole data set. Where no call is shown, the source filed none.
Potency means the concentration at half of the fitted maximal effect.

The assay is described as follows: qHTS Assay for Enhancers of SMN2 Splice Variant Expression. Further: nearly all actives have a fitted effect of over 55% in size. On activity change, positive = activation: % of control where 0% means no effect. Particulars: HEK293 SMN2-luciferase splicing reporter, luminescence, 30-36 h; activity change, positive = activation: at 46.1 µM (top of the series) unless noted. Put shortly:
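HEK293 cells carry an SMN2 […]–luciferase reporter in which exon 7 inclusion puts luciferase in frame. Cells were plated 10-12 h before compound addition, then incubated 30-36 h at 37C. ONE-Glo luminescence was read; sodium butyrate at 4.5 mM final served as control.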
As for `Cc1c(C(=O)OCCOc2ccccc2)[nH]c2c1C(=O)CCC2`, the Potency was active: 3.55 µM.
`COc1ccc(C(=O)/C(=C/c2cccs2)c2nc3ccccc3o2)cc1`: the “activity change, positive = activation” value is inactive: -71.8%.
The same measure, in the same setting: the figure for `COc1ccc(N2C(=O)CC(N3CCC(O)(c4ccc(Cl)cc4)CC3)C2=O)cc1` (stereo not drawn) is 33.4%; for `CC(=O)O[C@@]1(C(C)=O)CCC2C3CC(C)C4=CC(=O)CC[C@@]4(C)C3CC[C@]21C` (stereo partly drawn) it is inactive: -68.9%; for `CN(C)C(=S)Nc1ccc([N+](=O)[O-])cc1` it is 17.7%.
On the same count and under the same terms, the value for `CCC(=O)Oc1c(C(=O)CC)cc2c(C)cc(=O)oc2c1C` was 35.3%; that for `Cc1cccc(-c2noc(CN(C(=O)c3ccc(C)c(C)c3)C(C)C)n2)c1` was inactive: -71%; that for `O=C(NCc1cccc2ccccc12)[C@H]1C[C@@H]1[C@H](NP(=O)(c1ccccc1)c1ccccc1)c1ccccc1` was inactive: -30.8%.
For `COc1cccc(-c2n[nH]c3c2CCC3)c1`, the activity change, positive = activation is 30.1%.
`COc1ccc(OC)c(Nc2nc(-c3ccc(O)c(O)c3)cs2)c1`: the Potency is active: 17.8 µM.
Take `O=C(CCSc1ccccc1)Nc1nccs1`: the activity change, positive = activation was determined as 45.2%.
The same measure, in the same setting: the figure for `O=C(O)CCc1ccc(-c2ccc(Cl)cc2)n1Cc1ccco1` is 17.3%.
As for `CCOC(=O)c1sc2nc(CC(=O)OC)nc(NCc3ccc(F)cc3)c2c1C`, the “activity change, positive = activation” value is inactive: -56.7%.
Consider `COc1ccc(NC(=O)c2ccco2)cc1NC(=O)c1cccc(C)c1OC`, for which the “activity change, positive = activation” value was inactive: -31.3%.
With `NN1C(=O)NC(c2ccccc2)(c2ccccc2)C1=O`, the activity change, positive = activation was -33.1%.
Consider `c1ccc(-c2csc(NC3=NCCCCC3)n2)cc1`, for which the Potency was active: 11.2 µM.
Turning to `C=CCNC(=S)Nc1cc(C)ccn1`, the activity change, positive = activation is -47%.
On the same count and under the same terms, the value for `Cc1sc2nc(CN(C(=O)c3cccs3)C3CCCC3)[nH]c(=O)c2c1C` was inactive: -39.6%; that for `O=C(Nc1ccc(F)cc1F)N1CCN(c2ccc(Cl)c(Cl)c2)CC1` was 163%; that for `CCC(C)NC(=O)c1ccc(N2CCC3(CC2)OCCO3)c([N+](=O)[O-])c1` (stereo not drawn) was 31.1% [at 1.84 µM].
For `CC(C)(C)NC(=O)CSc1nnc(-c2ccco2)n1Cc1ccco1`, the activity change, positive = activation worked out at 19.6%.
For `C/C(=N\O)c1sc(-c2ccccc2)nc1C`, the Potency was active: 15.8 µM.
As for `Cc1nn(-c2nnc(NCc3ccccc3)nn2)c(C)c1Br`, the activity change, positive = activation was determined as 79%.
Same read-out and setting: the value for `CCOCCCN(CCC#N)S(=O)(=O)c1ccc(S(=O)(=O)N2CCCC2)cc1` was -36%; that for `COc1cccc(NC(=S)NCc2ccc3c(c2)cc(C)n3C)c1` was 36.5%.
As for `Cc1ccc(C(=O)Nc2ncc(C)s2)o1`, the Potency is active: 12.6 µM.
As to `COC(=O)c1nc2n(n1)C(c1ccc(OC)c(OC)c1OC)C1=C(CCCC1=O)N2` (stereo not drawn), the activity change, positive = activation was 36.2%.
Take `S=C(Nc1ccc(Nc2ccccc2)cc1)NC1CCCCCC1`: the “activity change, positive = activation” value was inactive: -32.9%.
The same measure, in the same setting: the value for `Cc1cc(S(=O)(=O)Nc2ccc3oc4c(c3c2)CCCC4)ccc1Cl` was inactive: -39%; that for `CCOc1ccccc1C(=O)NC(C(=O)Nc1cccc(S(N)(=O)=O)c1)C(C)C` (stereo not drawn) was inactive: -25.4%.
With `Cc1ccc(C)c(N2CCN(C(=O)c3ccc(Cn4c(=S)[nH]c5ccc(N6CCOCC6)cc5c4=O)cc3)CC2)c1`, the activity change, positive = activation amounted to 36.8%.
Take `Cc1ccc(F)cc1S(=O)(=O)N1CCC(c2nc3ccccc3s2)CC1`: the activity change, positive = activation was determined as 32.2%.
As for `Cc1c(C(=O)O)cccc1-c1ccc(/C=N/Nc2ccc(Br)cc2)o1`, the activity change, positive = activation came to 36%.
As for `O=C(Nc1ccccc1C(F)(F)F)c1cc2ncc(CCCl)cn2n1`, the activity change, positive = activation turned out to be 36.9%.
Still for that read-out and setting: the figure for `O=C(Nc1cccc(-c2nc3ccccc3o2)c1)c1cccnc1` is inactive: -35.4%.
Turning to `CCCCCCOc1ccc(C(=O)n2cnc(N)n2)cc1`, the activity change, positive = activation turned out to be 44.8%.
As to `Cc1ccc2nc(/C(C#N)=C/c3ccc(-c4ccc(C(=O)OC(C)C)cc4)o3)[nH]c2c1`, the Potency is active: 11.2 µM.
Regarding `CCc1c(C)sc(NC(=O)Cn2nc(C(F)(F)F)c3c2CCCC3)c1C#N`, the “activity change, positive = activation” value was inactive: -41.9%.
On the same count and under the same terms, the value for `CC1(C)C(=O)OC(c2c(F)c(F)c(F)c(F)c2F)C2(CCCCC2)C1=O` (stereo not drawn) was 35.8%; that for `Cc1c(NC(=S)N/N=C/C=C/c2ccc([N+](=O)[O-])cc2)c(=O)n(-c2ccccc2)n1C` was 2.15%; that for `C/C(=N\N1CCN(c2ccc(Cl)cc2)CC1)c1ccco1` was -30.4%.
Consider `CC(C)Oc1ccccc1/C=N/Nc1ccccc1[N+](=O)[O-]`, for which the “activity change, positive = activation” value is inactive: -31.1%.
Regarding `CCOc1ccc(NC(=O)Nc2cccc(C(=O)O)c2)cc1`, the Potency is active: 2 µM.
As for `O=C1NC(=O)/C(=C/c2ccc(O)cc2)S1`, the activity change, positive = activation worked out at 58.9%.
Turning to `O=C(/C=C/c1ccc(O)c(O)c1)OCCc1ccccc1`, the Potency was active: 15.8 µM and active: 17.8 µM.
As to `Cc1cc(C(=O)COC(=O)Cc2n[nH]c(=O)c3ccccc23)c(C)n1-c1cccc(C(F)(F)F)c1`, the “activity change, positive = activation” value was inactive: -69.5%.
Still for that read-out and setting: the figure for `COc1cc(CNc2nc(C)c([N+](=O)[O-])c(C)c2C#N)cc(OC)c1` is -32.3%.
Turning to `Fc1ccc(-c2cnn3c(-c4ccncc4)ccnc23)cc1`, the Potency was active: 4.47 µM.
Consider `CC(C)/C=C1\CC/C(=C\c2cccnc2)C1=O`, for which the “activity change, positive = activation” value was inactive: -34.2%.
As to `Cc1ccccc1C(=O)Oc1ccc(Sc2ccc(O)cc2)cc1`, the activity change, positive = activation stood at 36%.
Same read-out and setting: the figure for `Nc1nc(=S)c2[nH]cnc2[nH]1` is inactive: -43%; for `COC(=O)/C(=C\c1cc(OC)c(OC)c(OC)c1)c1nc2ccccc2[nH]1` it is inactive: -99.2%.
With `Cc1ccc(NS(=O)(=O)c2ccc(NC(=O)C3CCCO3)cc2)cc1` (stereo not drawn), the activity change, positive = activation was -67.6%.
On the same count and under the same terms, the value for `O=C(CCN1CCN(c2ccccc2)CC1)Nc1ccccc1F` was 33.4%.
With `CC(C)C[C@H](N)c1nnc(S(=O)(=O)Cc2ccc(F)cc2)o1`, the activity change, positive = activation was -59%.
On the same count and under the same terms, the value for `Cc1nc(N/N=C/c2ccccn2)sc1C` was -62.5%.
Regarding `CC(C)(C)C(=O)c1cnc(Nc2ccccc2Cl)s1`, the Potency is active: 12.6 µM.
Turning to `O=C1NC(=S)S/C1=C\c1ccc(SCc2ccco2)o1`, the activity change, positive = activation is -33%.
Still for that read-out and setting: the figure for `CCOC(=O)c1c(NC(=O)c2ccccc2C)sc2c1CC(C)(C)OC2` is -36.5%; for `COc1ccccc1C1N(c2ccc(Cl)cc2)C(=O)C2CCCN21` (stereo not drawn) it is 103%; for `C[n+]1c2n(c3ccccc31)N=C(c1ccccc1)CS2` it is inactive: -70.8%.
Same read-out and setting: the figure for `Cc1cccc(NC(=S)N2CCN(C(=O)C3CCCO3)CC2)c1` (stereo not drawn) is 16%; for `O=C(O)C(=O)/C(=C\c1ccccc1)c1ccc2ccccc2n1` it is 81.2%; for `Cc1cc(O)c(/C=N/Nc2ccc(F)cc2)c(=O)o1` it is inactive: -36.4%.
As to `CC(C)CCN1CC(C(=O)NCc2ccc(F)cc2)CC1=O` (stereo not drawn), the activity change, positive = activation worked out at 39.8%.
Turning to `COc1ccc(C2C3=C(CCCC3=O)Nc3ccc4ncccc4c32)cc1OC` (stereo not drawn), the activity change, positive = activation stood at 71.6%.
The same measure, in the same setting: the value for `CC(=O)OCC1OC(n2ncc(=O)n(Cc3ccccc3)c2=O)C(OC(C)=O)C1OC(C)=O` (stereo not drawn) was -29.3%; that for `CCn1c(=S)[nH]c2cc(S(=O)(=O)N3CCCCC3)ccc21` was 97.9%.
